These are yes or no findings as the source states them, for the method shown.
Biological target: FICD^L258D-H363A (human) (UniProt Q9BVA6)
Test: SEC; analytical SEC, Agilent Bio SEC-3 HPLC column, TNT buffer (25 mM Tris pH 8.0, 150 mM NaCl, 1 mM TCEP), 25°C; proteins diluted to a range of concentrations (Fig 3B) and incubated at least 1 h at room temperature; 0.3 ml/min; both purified

B1: FICD^L258D-H363A (enzyme, UniProt Q9BVA6 104-445)
chain: LEARAALNQALEMKRQGKREKAQKLFMHALKMDPDFVDALTEFGIFSEEDKDIIQADYLYTRALTISPYHEKALVNRDRTLPLVEEIDQRYFSIIDSKVKKVMSIPKGNSALRRVMEETYYHHIYHTVAIEGNTLTLSEIRHILETRYAVPGKSDEEQNEVIGMHAAMKYINTTLVSRIGSVTISDVLEIHRRVLGYVDPVEAGRFRTTQVLVGHHIPPHPQDVEKQMQEFVQWLNSEEAMNLHPVEFAALAHYKLVYIAPFIDGNGRTSRLLMNLILMQAGYPPITIRKEQRSDYYHVLEAANEGDVRPFIRFIAKCTETTLDTLLFATTEYSVALPEAQP
- binding: no binding

Source: paper PMC9994480, “Infancy‐onset diabetes caused by de‐regulated AMPylation of the human endoplasmic reticulum chaperone BiP” (EMBO Molecular Medicine, 2023)
